Experimental data from the supplement of paper PMC12823440, “Inhibitors supercharge kinase turnover through native proteolytic circuits” (Nature, 2025).
Counter-ions that a name gives are not always drawn. The list shows a part of the results. The calls rarely recur for the same compound in another form.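 In K562 cells expressing nanoluciferase-fused kinases, luminescence was recorded at 4 h intervals between 2 and 18 h, normalized as percent of control with DMSO at 100% and a positive control at 0%. A significant (2 sigma) signal drop marks a time point as decreased. The authors' rule for a hit is not shown and takes in more than the number of time points.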

Amino acid sequences for entries named in this document (tags omitted). A change or cut given only in a name is not applied to a line headed by its entry.
UniProt Q9UM73: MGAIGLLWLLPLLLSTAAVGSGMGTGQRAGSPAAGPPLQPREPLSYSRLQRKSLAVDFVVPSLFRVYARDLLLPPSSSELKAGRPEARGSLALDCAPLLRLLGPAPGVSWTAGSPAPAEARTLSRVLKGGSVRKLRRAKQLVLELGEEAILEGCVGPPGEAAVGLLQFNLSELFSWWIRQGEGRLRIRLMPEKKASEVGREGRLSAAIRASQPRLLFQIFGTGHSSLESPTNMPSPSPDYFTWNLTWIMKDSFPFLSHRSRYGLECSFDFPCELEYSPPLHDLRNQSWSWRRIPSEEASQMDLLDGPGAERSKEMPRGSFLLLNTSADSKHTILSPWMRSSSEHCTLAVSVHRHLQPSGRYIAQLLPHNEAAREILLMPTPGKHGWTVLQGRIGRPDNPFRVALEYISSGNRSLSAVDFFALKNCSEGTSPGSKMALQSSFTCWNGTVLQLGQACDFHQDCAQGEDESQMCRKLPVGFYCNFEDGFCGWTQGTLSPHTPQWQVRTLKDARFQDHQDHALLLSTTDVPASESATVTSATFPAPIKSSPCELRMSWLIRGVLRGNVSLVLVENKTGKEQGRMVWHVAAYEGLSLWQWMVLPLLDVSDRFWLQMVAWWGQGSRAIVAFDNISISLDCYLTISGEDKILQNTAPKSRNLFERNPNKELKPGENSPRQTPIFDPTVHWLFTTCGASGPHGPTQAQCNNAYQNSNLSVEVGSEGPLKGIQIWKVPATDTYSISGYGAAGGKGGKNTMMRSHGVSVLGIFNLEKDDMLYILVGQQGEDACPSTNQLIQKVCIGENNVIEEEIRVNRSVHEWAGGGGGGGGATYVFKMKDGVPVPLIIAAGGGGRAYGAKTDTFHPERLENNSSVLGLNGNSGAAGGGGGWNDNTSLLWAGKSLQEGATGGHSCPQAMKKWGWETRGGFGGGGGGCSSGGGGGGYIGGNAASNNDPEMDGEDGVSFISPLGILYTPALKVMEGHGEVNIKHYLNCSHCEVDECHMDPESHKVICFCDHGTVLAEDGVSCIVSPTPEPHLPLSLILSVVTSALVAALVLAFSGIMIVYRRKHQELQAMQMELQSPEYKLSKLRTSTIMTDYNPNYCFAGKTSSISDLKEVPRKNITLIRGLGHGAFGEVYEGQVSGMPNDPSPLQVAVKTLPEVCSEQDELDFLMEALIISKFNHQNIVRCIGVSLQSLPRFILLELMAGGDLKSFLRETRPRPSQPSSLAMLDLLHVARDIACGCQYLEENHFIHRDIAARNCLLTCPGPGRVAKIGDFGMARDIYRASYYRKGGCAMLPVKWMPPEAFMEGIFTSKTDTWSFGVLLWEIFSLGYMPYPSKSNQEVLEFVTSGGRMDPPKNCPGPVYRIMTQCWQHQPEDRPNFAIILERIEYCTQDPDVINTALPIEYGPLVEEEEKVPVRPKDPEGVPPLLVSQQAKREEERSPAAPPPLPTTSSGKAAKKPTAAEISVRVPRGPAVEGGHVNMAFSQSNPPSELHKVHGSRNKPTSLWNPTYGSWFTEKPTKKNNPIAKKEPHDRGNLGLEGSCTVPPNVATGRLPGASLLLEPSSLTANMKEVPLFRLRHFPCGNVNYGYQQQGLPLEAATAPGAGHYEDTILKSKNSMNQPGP
UniProt P10398: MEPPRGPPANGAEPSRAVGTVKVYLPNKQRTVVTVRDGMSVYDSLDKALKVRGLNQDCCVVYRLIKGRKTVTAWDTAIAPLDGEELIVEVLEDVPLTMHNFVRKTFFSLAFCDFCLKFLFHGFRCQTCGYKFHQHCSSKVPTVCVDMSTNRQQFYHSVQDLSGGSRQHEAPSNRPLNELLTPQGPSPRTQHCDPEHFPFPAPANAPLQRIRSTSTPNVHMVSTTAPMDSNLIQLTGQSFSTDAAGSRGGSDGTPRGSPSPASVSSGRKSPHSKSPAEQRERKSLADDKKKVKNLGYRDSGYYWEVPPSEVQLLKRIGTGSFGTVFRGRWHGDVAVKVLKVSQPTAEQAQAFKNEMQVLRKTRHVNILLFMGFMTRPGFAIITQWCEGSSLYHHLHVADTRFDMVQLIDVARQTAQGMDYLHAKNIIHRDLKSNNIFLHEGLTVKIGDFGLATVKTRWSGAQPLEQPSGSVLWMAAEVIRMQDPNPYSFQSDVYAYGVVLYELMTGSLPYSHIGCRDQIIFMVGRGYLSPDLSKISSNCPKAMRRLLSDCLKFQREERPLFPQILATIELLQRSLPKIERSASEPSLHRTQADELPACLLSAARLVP
UniProt O14965: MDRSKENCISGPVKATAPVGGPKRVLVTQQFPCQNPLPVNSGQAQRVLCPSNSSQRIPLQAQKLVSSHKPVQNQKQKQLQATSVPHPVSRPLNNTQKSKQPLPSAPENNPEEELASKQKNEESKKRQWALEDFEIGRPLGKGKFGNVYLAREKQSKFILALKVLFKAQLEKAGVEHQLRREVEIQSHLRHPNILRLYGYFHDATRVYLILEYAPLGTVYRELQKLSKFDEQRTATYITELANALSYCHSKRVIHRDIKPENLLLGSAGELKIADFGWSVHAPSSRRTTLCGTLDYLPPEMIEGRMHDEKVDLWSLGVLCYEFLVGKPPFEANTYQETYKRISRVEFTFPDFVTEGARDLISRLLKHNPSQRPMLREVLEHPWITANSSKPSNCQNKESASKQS
UniProt Q96GD4, whole entry: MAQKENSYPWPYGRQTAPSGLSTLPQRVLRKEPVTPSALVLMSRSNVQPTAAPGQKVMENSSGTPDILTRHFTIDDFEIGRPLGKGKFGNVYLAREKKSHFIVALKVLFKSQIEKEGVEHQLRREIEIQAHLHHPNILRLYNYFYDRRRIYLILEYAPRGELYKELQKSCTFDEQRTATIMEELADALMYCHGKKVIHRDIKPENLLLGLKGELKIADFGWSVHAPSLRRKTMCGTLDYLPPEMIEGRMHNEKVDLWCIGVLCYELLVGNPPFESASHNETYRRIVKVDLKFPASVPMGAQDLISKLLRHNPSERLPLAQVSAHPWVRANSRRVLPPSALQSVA
UniProt Q9UQB9: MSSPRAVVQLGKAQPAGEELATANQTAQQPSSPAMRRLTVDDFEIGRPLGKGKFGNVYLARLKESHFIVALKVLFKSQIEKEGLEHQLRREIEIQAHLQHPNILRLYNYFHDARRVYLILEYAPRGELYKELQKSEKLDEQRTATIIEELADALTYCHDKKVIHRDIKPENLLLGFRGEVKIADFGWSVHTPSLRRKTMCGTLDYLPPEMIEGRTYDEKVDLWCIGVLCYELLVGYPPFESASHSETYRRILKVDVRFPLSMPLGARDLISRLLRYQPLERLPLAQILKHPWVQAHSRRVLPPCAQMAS
UniProt P51451: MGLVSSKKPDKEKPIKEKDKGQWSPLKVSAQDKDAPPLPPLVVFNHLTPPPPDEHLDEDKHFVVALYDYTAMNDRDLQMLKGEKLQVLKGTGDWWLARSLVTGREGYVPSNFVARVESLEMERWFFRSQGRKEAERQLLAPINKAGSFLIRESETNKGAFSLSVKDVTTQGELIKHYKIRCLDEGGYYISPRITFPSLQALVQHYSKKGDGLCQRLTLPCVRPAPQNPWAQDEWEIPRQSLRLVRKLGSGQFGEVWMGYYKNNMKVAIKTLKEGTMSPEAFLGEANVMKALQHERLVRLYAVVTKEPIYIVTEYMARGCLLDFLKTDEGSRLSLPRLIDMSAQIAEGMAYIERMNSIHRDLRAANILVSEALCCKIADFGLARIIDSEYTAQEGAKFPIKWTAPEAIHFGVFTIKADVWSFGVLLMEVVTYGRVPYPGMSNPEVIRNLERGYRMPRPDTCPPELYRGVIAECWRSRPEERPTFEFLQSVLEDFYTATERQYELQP
UniProt P51813: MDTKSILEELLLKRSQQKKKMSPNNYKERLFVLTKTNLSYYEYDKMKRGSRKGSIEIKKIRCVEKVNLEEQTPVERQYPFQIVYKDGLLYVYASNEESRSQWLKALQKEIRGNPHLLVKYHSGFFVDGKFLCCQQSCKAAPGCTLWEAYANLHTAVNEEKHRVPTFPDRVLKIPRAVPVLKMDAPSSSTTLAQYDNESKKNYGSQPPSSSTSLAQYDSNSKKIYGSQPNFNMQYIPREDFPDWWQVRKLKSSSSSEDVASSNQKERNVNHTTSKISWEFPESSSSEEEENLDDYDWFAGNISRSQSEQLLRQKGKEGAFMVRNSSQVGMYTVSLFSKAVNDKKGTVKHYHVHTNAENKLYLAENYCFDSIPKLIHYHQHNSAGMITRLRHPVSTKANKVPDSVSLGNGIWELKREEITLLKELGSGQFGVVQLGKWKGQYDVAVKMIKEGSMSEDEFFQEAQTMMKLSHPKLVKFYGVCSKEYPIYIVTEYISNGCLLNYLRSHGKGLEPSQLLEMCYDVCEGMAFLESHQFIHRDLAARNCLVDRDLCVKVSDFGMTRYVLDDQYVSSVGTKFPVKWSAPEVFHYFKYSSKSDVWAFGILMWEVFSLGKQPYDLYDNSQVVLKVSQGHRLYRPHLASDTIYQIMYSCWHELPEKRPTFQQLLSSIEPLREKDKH
UniProt P15056, whole entry, looked up: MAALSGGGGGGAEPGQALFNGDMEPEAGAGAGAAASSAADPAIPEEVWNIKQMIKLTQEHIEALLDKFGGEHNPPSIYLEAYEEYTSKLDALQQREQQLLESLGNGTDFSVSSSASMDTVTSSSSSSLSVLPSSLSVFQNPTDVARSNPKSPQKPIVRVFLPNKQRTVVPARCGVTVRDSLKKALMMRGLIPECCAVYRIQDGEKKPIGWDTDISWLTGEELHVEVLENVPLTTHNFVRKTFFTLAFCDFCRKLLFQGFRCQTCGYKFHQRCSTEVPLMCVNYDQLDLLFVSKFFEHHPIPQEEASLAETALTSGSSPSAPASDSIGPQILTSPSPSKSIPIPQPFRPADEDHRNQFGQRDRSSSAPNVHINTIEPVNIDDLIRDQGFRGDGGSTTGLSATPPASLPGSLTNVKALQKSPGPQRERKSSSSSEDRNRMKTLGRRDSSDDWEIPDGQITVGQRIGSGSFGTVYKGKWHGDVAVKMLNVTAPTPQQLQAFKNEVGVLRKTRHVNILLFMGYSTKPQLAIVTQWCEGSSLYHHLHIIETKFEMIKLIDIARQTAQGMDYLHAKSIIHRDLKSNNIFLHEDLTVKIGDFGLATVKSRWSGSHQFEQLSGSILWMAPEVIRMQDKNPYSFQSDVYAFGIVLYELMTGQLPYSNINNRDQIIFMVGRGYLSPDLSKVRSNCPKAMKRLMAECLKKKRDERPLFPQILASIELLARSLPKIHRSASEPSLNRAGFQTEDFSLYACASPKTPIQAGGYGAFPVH
UniProt Q06187: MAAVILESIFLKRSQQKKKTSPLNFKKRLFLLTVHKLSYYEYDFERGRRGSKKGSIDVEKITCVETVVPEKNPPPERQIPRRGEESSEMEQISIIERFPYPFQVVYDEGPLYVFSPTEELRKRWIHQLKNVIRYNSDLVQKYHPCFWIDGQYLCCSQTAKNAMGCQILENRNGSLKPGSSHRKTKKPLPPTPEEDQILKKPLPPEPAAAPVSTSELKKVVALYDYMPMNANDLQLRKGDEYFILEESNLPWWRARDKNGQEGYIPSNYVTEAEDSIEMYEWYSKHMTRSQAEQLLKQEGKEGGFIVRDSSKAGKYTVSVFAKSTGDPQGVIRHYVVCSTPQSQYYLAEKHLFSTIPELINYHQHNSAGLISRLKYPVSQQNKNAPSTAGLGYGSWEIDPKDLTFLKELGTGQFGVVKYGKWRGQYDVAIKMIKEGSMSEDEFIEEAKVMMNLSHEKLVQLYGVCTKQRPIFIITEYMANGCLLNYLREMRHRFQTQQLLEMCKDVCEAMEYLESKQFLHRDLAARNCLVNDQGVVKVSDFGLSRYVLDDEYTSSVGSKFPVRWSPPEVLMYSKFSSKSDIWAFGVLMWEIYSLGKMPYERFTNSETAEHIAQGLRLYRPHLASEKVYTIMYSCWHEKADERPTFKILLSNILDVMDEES

Tests used:
Assay in all cases: number of time points (of 5) at which kinase-Nluc abundance scored as decreased, DMSO-normalised (count); higher = more persistent destabilization
Details in all cases: K562; 2-18 h
ALK = ALK (UniProt Q9UM73)
ARAF = ARAF (UniProt P10398)
AURKA = AURKA (UniProt O14965)
AURKB = AURKB (UniProt Q96GD4)
AURKC = AURKC (UniProt Q9UQB9)
BLK = BLK (UniProt P51451)
BMX = BMX (UniProt P51813)
BRAF = BRAF (UniProt P15056)
BRAF_V600E = system: BRAF_V600E
BTK = BTK (UniProt Q06187)

Measured: number of time points

CC(C)c1cc(/C=C(\C#N)C(=O)NCCCc2ccccc2)cc(C(C)C)c1O (10 µM)
1: BTK
0: all other assays above

O=C(O)c1cccc(CN2C(=O)/C(=C(\c3ccccc3)c3ccc(Cl)cc3)c3ccccc32)c1 (2.5 µM)
0: all assays above

C=CC(=O)Nc1cccc(-c2cccc3cnc(Nc4ccc(N5CCN(CCO)CC5)c(F)c4F)nc23)c1 [Olafertinib] (2.5 µM)
0: all assays above

CCCCCCCCCCCCCCCCOP(=O)([O-])OCC[N+](C)(C)C [Miltefosine] (10 µM)
0: all assays above

O=c1cc(N2CCOCC2)nc2c3ccccc3ccn12 [Compound 401] (10 µM)
0: all assays above

CN(C)CCC=C1c2ccccc2CCc2ccccc21 [Amitriptyline (hydrochloride)] (2.5 µM)
0: all assays above

Cc1ccc(NC(=O)c2ccc(CN(CCN(C)C)C(=O)c3cccnc3)cc2)cc1Nc1nccc(-c2cccnc2)n1 [PDGFRα kinase inhibitor 1] (10 µM)
0: all assays above

COCCNc1cc(NC(=O)N2CCCc3cc(CN4CCN(C)CC4=O)c(C=O)nc32)ncc1C#N [Roblitinib] (10 µM)
0: all assays above

COc1ccc2cc3[n+](cc2c1OC)CCc1cc(O)c(O)cc1-3 [Demethyleneberberine] (10 µM)
0: all assays above

NC(=O)c1cnc2[nH]ccc2c1N[C@@H]1[C@@H]2CC3C[C@H]1C[C@@](O)(C3)C2 [Peficitinib] (10 µM)
3: BMX
4: BRAF_V600E
0: all other assays above

CCOC(=O)N1C/C(=C/c2ccccc2F)C(=O)/C(=C\c2ccccc2F)C1 (2.5 µM)
0: all assays above

COc1cc2ncnc(Nc3ccccc3)c2cc1OC (10 µM)
0: all assays above

Structural class: the entries above with a carbonyl joined to an NH by a bond outside any ring
CC(C)c1cc(/C=C(\C#N)C(=O)NCCCc2ccccc2)cc(C(C)C)c1O (10 µM)
1: BTK
0: all other assays above

C=CC(=O)Nc1cccc(-c2cccc3cnc(Nc4ccc(N5CCN(CCO)CC5)c(F)c4F)nc23)c1 [Olafertinib] (2.5 µM)
0: all assays above

Cc1ccc(NC(=O)c2ccc(CN(CCN(C)C)C(=O)c3cccnc3)cc2)cc1Nc1nccc(-c2cccnc2)n1 [PDGFRα kinase inhibitor 1] (10 µM)
0: all assays above

COCCNc1cc(NC(=O)N2CCCc3cc(CN4CCN(C)CC4=O)c(C=O)nc32)ncc1C#N [Roblitinib] (10 µM)
0: all assays above

NC(=O)c1cnc2[nH]ccc2c1N[C@@H]1[C@@H]2CC3C[C@H]1C[C@@](O)(C3)C2 [Peficitinib] (10 µM)
3: BMX
4: BRAF_V600E
0: all other assays above

(next part)

O=C(Nc1cccc(Nc2ncc(Br)c(NCCc3cnc[nH]3)n2)c1)N1CCCC1 (10 µM)
3: BLK
1: ALK | BRAF_V600E
0: all other assays above

CN(C)c1nc2c(Br)c(Br)c(Br)c(Br)c2[nH]1 (10 µM)
0: all assays above

FC(F)(F)c1ccc(/C=C/c2nc(COc3ccc(CCCCn4ccnn4)cc3)co2)cc1 [Mubritinib] (10 µM)
1: BMX | BRAF_V600E
0: all other assays above

CC(C)=CC(=O)O[C@H]1Cc2cc3ccc(=O)oc3cc2OC1(C)C [Decursin] (10 µM)
0: all assays above

CNc1nc(Nc2cn(C(C)(C)C#N)nc2C)ncc1C(F)(F)F (10 µM)
0: all assays above

O[C@@H]1CO[C@H]2[C@@H]1OC[C@H]2Oc1nc2nc(-c3ccc(-c4ccccc4)cc3)c(Cl)cc2[nH]1 (10 µM)
0: all assays above

CCCNC(=O)Nc1ccc(Oc2ncnc3cc(OC)c(OC)cc23)cc1Cl (2.5 µM)
0: all assays above

CN1CC[C@@H](c2c(O)cc(O)c3c(=O)cc(-c4ccc(C(F)(F)F)cc4Cl)oc23)[C@@H]1CO [Voruciclib (hydrochloride)] (10 µM)
0: all assays above

CCN(CC)c1cc2oc(=O)c(-c3nc4ccccc4o3)cc2cc1C (2.5 µM)
1: BRAF | BTK
2: BMX
0: all other assays above

CC[C@@](C)(Nc1ccnc(-c2c[nH]c3ncccc23)n1)C(=O)NCC(F)(F)F [Decernotinib] (10 µM)
0: all assays above

Oc1ccc(/C=C/c2cc(O)cc(F)c2)cc1 [Resveratrol analog 1] (10 µM)
0: all assays above

O=[N+]([O-])c1ccc(Nc2nc(N3CCOCC3)nc(N3CCOCC3)n2)cc1 (10 µM)
0: all assays above

CCN(CC)CCC(=O)N1N=C(c2c(-c3ccccc3)c3cc(Br)ccc3[nH]c2=O)CC1c1ccc(Br)cc1 (stereo not given) (2.5 µM)
4: AURKA | AURKB
1: BLK
0: all other assays above

N#Cc1c2nc3ccccc3nc2n2ccc(NC(=O)c3cccs3)cc12 (10 µM)
0: all assays above

Cc1ccc(C(=O)Nc2sc(Nc3ccccc3)nc2C(N)=O)cc1 (10 µM)
0: all assays above

N#CC(c1ccnc(OCc2ccc(CN3CCOCC3)cc2)n1)c1nc2ccccc2s1 (stereo not given) [Bentamapimod] (2.5 µM)
0: all assays above

C=C[C@@](C)(/C=C/c1ccc(O)cc1)CCC=C(C)C [Bakuchiol] (10 µM)
0: all assays above

C[C@H](Nc1ncnc2nc[nH]c12)c1cc2cccc(Cl)c2c(=O)n1-c1ccccc1 [Duvelisib] (10 µM)
0: all assays above

O=C(O)c1cc(N(Cc2ccccc2O)Cc2ccccc2O)ccc1O [Lavendustin B] (10 µM)
0: all assays above

Cc1cc(Nc2nc(CC3(C(=O)O)CCN(C(=O)c4cccc(Cl)c4Cl)CC3)ccc2F)n[nH]1 (10 µM)
1: BLK
2: BMX | BRAF_V600E
0: all other assays above

Cc1nn(C)c2c1C(c1ccc(C(F)(F)F)cc1)C(C#N)=C(N)O2 (stereo not given) (10 µM)
0: all assays above

COc1ncccc1-c1cnn2ccc(N3CCN(C(=O)OC(C)C)CC3)nc12 (10 µM)
0: all assays above

O=C(NCc1cccc(O)c1)Nc1nc(-c2ccncc2)cs1 (10 µM)
0: all assays above

CCCCCCCC/C=C\CCCCCCCCCCCC(=O)O [Erucic acid] (10 µM)
0: all assays above

O=c1cc(-c2cccc3c2Sc2ccccc2S3)oc(N2CCOCC2)c1 (10 µM)
0: all assays above
